In PubChem BioAssay AID248 (DTP/NCI, 2004):
The list shows only some results of the screen, not a fair sample: it is rich in T/C values a quarter to a half above the control, in often repeated tests (any T/C) and in doses without a T/C. Other doses and runs of a compound stand elsewhere. T/C is the treated group as % of the vehicle group. Some doses have a count of surviving animals in place of a T/C: the source files T/C as zero there, which appears to mark a toxic dose or a test without result, not a measured value. Some doses without a T/C left all or most animals alive at the check, yet need not have been tolerated: the source hardly ever lists a survival T/C far under the control, and the zero likely stands for such cases as well. Survivors were counted at the toxicity check, usually on the fifth day, unless a day is given; later deaths do not show. Schedule codes are those of the source, read here as Q, the interval in days (D) or hours (H), X, the number of doses. Where survival is the endpoint, the PubChem record calls one and a half times the control and up active, and a quarter to a half above the control has no call in these data; cut-offs in other NCI protocols can differ. Some T/C values carry the count of animals alive at the toxicity check (mostly the fifth day); where none is given, no animal had died by that day. Some doses were run more than once; the values are given in rising order. Signs of the kind (2×) count equal records among those shown. Some schedule codes hold Z or #, which are not explained here.

Tested on: L1210 leukemia ip in BDF1 mice, survival T/C
Assay: NCI In Vivo Anticancer Drug Screen. Data for tumor model L1210 Leukemia (intraperitoneal) in B6D2F1 (BDF1) mice
Conditions: T/C endpoint: mean survival time, higher T/C = longer survival

N[C@@H](Cc1ccc(N(CCCl)CCCl)cc1)C(=O)O
T/C (dose: 0.25 mg/kg/injection, schedule: Q03HX024 (ip), vehicle: saline): 128 % of control [9 of 10 alive]
T/C (dose: 0.5 mg/kg/injection, schedule: Q03HX024 (ip), vehicle: saline): 127 % of control
T/C (dose: 0.8 mg/kg/injection, schedule: Q01DX015 (ip), vehicle: carboxymethylcellulose (CMC)): 134 % of control
T/C (dose: 1.0 mg/kg/injection, schedule: Q01DX009 (ip), vehicle: Klucel (hydroxypropylcellulose) (HPC)): 128, 131, 138, 147 % of control
T/C (dose: 1.0 mg/kg/injection, schedule: Q01DX009 (ip), vehicle: other): 141 % of control
T/C (dose: 1.0 mg/kg/injection, schedule: Q01DX009 (ip), vehicle: saline): 134 % of control
T/C (dose: 1.0 mg/kg/injection, schedule: Q01DX009 (sc), vehicle: saline): 125 % of control
T/C (dose: 1.0 mg/kg/injection, schedule: Q01DX Z (ip), vehicle: carboxymethylcellulose (CMC)): 148 % of control
T/C (dose: 1.0 mg/kg/injection, schedule: Q03DX Z (ip), vehicle: carboxymethylcellulose (CMC)): 146 % of control
T/C (dose: 1.0 mg/kg/injection, schedule: Q03HX016 (ip), vehicle: saline): 138 % of control
T/C (dose: 1.0 mg/kg/injection, schedule: Q03HX024 (ip), vehicle: saline): 140 % of control
T/C (dose: 1.56 mg/kg/injection, schedule: Q01DX001 (ip), vehicle: carboxymethylcellulose (CMC)): 125 % of control
T/C (dose: 1.6 mg/kg/injection, schedule: Q01DX015 (ip), vehicle: carboxymethylcellulose (CMC)): 143 % of control
T/C (dose: 2.0 mg/kg/injection, schedule: Q01DX005 (ip), vehicle: saline): 130 % of control
T/C (dose: 2.0 mg/kg/injection, schedule: Q01DX009 (ip), vehicle: Klucel (hydroxypropylcellulose) (HPC)): 138 (2×), 167, 236 % of control
T/C (dose: 2.0 mg/kg/injection, schedule: Q01DX009 (oral), vehicle: saline): 129 % of control [9 of 10 alive]
T/C (dose: 2.0 mg/kg/injection, schedule: Q01DX009 (sc), vehicle: saline): 130 % of control
T/C (dose: 2.0 mg/kg/injection, schedule: Q04DX003 (ip), vehicle: saline): 127 % of control
T/C (dose: 2.25 mg/kg/injection, schedule: Q01DX001 (ip), vehicle: carboxymethylcellulose (CMC)): 136 and 142 % of control
T/C (dose: 3.12 mg/kg/injection, schedule: Q01DX001 (ip), vehicle: carboxymethylcellulose (CMC)): 132 % of control
T/C (dose: 3.5 mg/kg/injection, schedule: Q04DX002 (ip), vehicle: Klucel (hydroxypropylcellulose) (HPC)): 123, 124, 128, 141 % of control
T/C (dose: 3.6 mg/kg/injection, schedule: Q01DX001 (ip), vehicle: saline): 136 and 140 % of control
T/C (dose: 3.6 mg/kg/injection, schedule: Q04DX003 (ip), vehicle: saline): 145 % of control
T/C (dose: 4.0 mg/kg/injection, schedule: Q01DX001 (ip), vehicle: carboxymethylcellulose (CMC)): 133 % of control
T/C (dose: 4.0 mg/kg/injection, schedule: Q01DX005 (ip), vehicle: saline): 148 % of control [9 of 10 alive]
T/C (dose: 4.0 mg/kg/injection, schedule: Q01DX009 (ip), vehicle: Klucel (hydroxypropylcellulose) (HPC)): 149, 175, 208, 237 % of control [2 of 3 alive]
T/C (dose: 4.0 mg/kg/injection, schedule: Q01DX Z (ip), vehicle: carboxymethylcellulose (CMC)): 138 % of control
T/C (dose: 4.0 mg/kg/injection, schedule: Q04DX003 (ip), vehicle: saline): 144 % of control
T/C (dose: 4.0 mg/kg/injection, schedule: Q08DX002 (ip), vehicle: saline): 138 % of control
survivor count (dose: 5.33 mg/kg/injection, schedule: Q03HX024 (ip), vehicle: other): 5 of 6
T/C (dose: 6.0 mg/kg/injection, schedule: Q01DX001 (ip), vehicle: Klucel (hydroxypropylcellulose) (HPC)): 135 % of control
T/C (dose: 6.0 mg/kg/injection, schedule: Q01DX001 (ip), vehicle: carboxymethylcellulose (CMC)): 144 % of control
T/C (dose: 6.0 mg/kg/injection, schedule: Q01DX Z (oral), vehicle: carboxymethylcellulose (CMC)): 146 % of control
T/C (dose: 6.25 mg/kg/injection, schedule: Q01DX001 (ip), vehicle: saline): 126 % of control
T/C (dose: 7.0 mg/kg/injection, schedule: Q04DX002 (ip), vehicle: Klucel (hydroxypropylcellulose) (HPC)): 158, 175, 188 % of control (2×)
T/C (dose: 8.0 mg/kg/injection, schedule: Q01DX001 (ip), vehicle: saline): 132 % of control
survivor count (dose: 8.0 mg/kg/injection, schedule: Q01DX009 (ip), vehicle: saline): 9 of 10
T/C (dose: 8.0 mg/kg/injection, schedule: Q01DX Z (ip), vehicle: carboxymethylcellulose (CMC)): 98, 100, 110, 118 % of control
survivor count (dose: 8.0 mg/kg/injection, schedule: Q03HX008 (ip), vehicle: saline): 7 of 10
survivor count (dose: 8.0 mg/kg/injection, schedule: Q03HX016 (ip), vehicle: saline): 8 of 10
